“And” between values parts separate entries of the source, which are not always exact repeats. Identical values can stand only once. This is one part of the list. These are further read-outs of the screen, such as a control signal, another cell line or another target. No call is given for them. The list favours compounds with an active or inconclusive main result. The note in brackets gives the kind of curve behind each potency; many fits are weak.
Assay: qHTS Assay for Lipid Storage Modulators in Drosophila S3 Cells;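 on cell number change: cells counted by Cell Tracker Red CMTPX staining in the red channel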
Settings: BODIPY lipid droplet fluorescence, 18-24 h; for cell number change: measured here: cell count max response, cells fed with added oleic acid
Method in brief: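 Laser-scanning cytometry quantifies lipid droplet accumulation (500–530 nm total intensity; droplet/cell object ratio) in oleic acid-fed (400 uM added) Drosophila S3 cells treated with a concentration series. 20 uM Triacsin C defined 100% inhibition.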

[1] = measured here: lipid fluorescence (Fed channel) AC50, cells fed with added oleic acid
[2] = measured here: cell number channel AC50, cells fed with added oleic acid

| SMILES | cell number change | AC50 [1] | AC50 [2] |
| --- | --- | --- | --- |
| O=C(Nc1cccc(Cl)c1)OC1CCCCc2cccnc21 (stereo not given) | 17.7% | 14.6 µM [rising, partial curve] | – |
| O=C(COc1ccccc1)Nc1ccc(S(=O)(=O)Nc2ccccn2)cc1 | 9.13% | 6.51 µM [rising, single point] | – |
| O=C(c1cc([N+](=O)[O-])ccc1Cl)N1CCN(Cc2ccccc2)CC1 | -30.7% | 0.58 µM [rising, single point] | 29.1 µM [falling, partial curve, poor fit] |
| CCCC(=O)OCCNc1cc(SCc2ccco2)c2nonc2c1[N+](=O)[O-] | -11.5% | 29.1 µM [falling, single point] | – |
| COC(=O)c1c(O)cc(=O)n2c1CCCCC2 | -44.5% | – | – |
| Cc1nc(C)c(/C(O)=C\c2nc3ccc([N+](=O)[O-])cc3oc2=O)o1 | 3.79% | 23.1 µM [falling, single point] | – |
| CCCCNC(=O)c1ccccc1NC(=O)CN(c1ccccc1)S(=O)(=O)N(C)C | 17.8% | 5.8 µM [rising, full curve] | – |
| COc1ccc(Nc2nc(C)cc(C)c2C(N)=O)cc1 | 4.09% | – | – |
| FC(F)C(F)(F)Oc1cccc(-c2n[nH]c(=S)n2Cc2ccccc2)c1 | -35.7% | 29.1 µM [falling, single point] | 29.1 µM [falling, single point] |
| CC(=O)N1CCN(c2ccc(NC(=O)c3ccc(Cl)c([N+](=O)[O-])c3)cc2)CC1 | -5.63% | 29.1 µM [rising, single point] | – |
| Cc1ccccc1OCC(=O)Nc1ccc(S(=O)(=O)N2CCCC2)cc1 | -45.2% | 25.9 µM [falling, single point] | 18.4 µM [falling, single point] |
| O=C1CC(c2ccccc2)CC(O)=C1C=NCc1ccc(Cl)c(Cl)c1 (stereo not given) | -4.01% | 3.26 µM [rising, partial curve, poor fit] | 3.26 µM [rising, single point] |
| Nc1cccc2cc(-c3ccccc3)oc12 | -8.46% | 0.517 µM [falling, single point] | – |
| COc1cc(C(CCN2CCN(c3ccccc3)CC2)c2c(OC)cc(OC)c3c(C)cc(=O)oc23)cc(OC)c1OC (stereo not given) | -26.4% | 29.1 µM [falling, single point] | – |
| COc1cc(OC)cc(-c2c(C#Cc3ccsc3)c3cc(-c4ccc5[nH]ccc5c4)ccc3n2C)c1 | -21.1% | 0.116 µM [rising, full curve] | – |
| O=C(Nc1ccc(NC(=O)c2ccc([N+](=O)[O-])o2)cc1Cl)c1ccco1 | 4.7% | 3.26 µM [falling, full curve] | – |
| CN(C)S(=O)(=O)c1ccc(C(=O)NCc2nc3ccccc3s2)cc1 | 3.85% | – | – |
| CC(=O)c1ccc(-n2nncc2C)cc1 | -1.68% | – | – |
| O=S(=O)(c1ccc(Cl)s1)N1CCN(Cc2ccccc2)CC1 | 132% | 18.4 µM [rising, partial curve] | 18.4 µM [rising, single point] |
| CC(C)COc1ccc(C(=O)OC2CC(C)(C)OCC2CN(C)C)cc1 (stereo not given) | -6.44% | – | – |
| CCc1ccccc1OCC(=O)OCC(=O)N1CC(=O)Nc2ccccc21 | 57.1% | – | 16.4 µM [rising, single point] |

| SMILES | cell number change | AC50 [1] | AC50 [2] |
| --- | --- | --- | --- |
| COc1ccc(S(=O)(=O)Nc2ccc(-n3cccc3)cc2)cc1 | -62.4% | 29.1 µM [falling, single point] | 29.1 µM [falling, single point] |
| Cc1cccc(OCCCC(=O)Nc2ccccc2C(F)(F)F)c1 | -2.79% | – | – |
| O=C(O)CCCCC1SCC2NC(=O)NC21 (stereo not given) | -23.9% and -58.3% | 14.6 µM [falling, partial curve] and 3.66 µM [falling, single point] | 2.91 µM [falling, partial curve, poor fit] |
| CCN1CCc2nc(NC(=O)C(c3ccccc3)c3ccccc3)sc2C1 | – | 0.00461 µM [falling, full curve, poor fit] | – |
| CC(=O)Nc1ccc(S(=O)(=O)NCCC(=O)OCc2csc(CC(=O)Nc3ccccc3C)n2)cc1 | 12.5% | – | 0.116 µM [falling, full curve] |
| Cc1ccc(S(=O)(=O)N(C)C)cc1NC(=O)COC(=O)CCC1CCCCC1 | -3.21% | – | – |
| CCn1cc(CNC(=O)C2C3CCC(C3)C2C(=O)O)cn1 (stereo not given) | -15.8% | – | – |
| Cc1cc(NC(=O)C(C)SCC(=O)N(C)CC(=O)Nc2ccc(Br)cc2C)no1 (stereo not given) | 9.19% | 29.1 µM [falling, single point] | – |
| O=C(CCCCC(=O)Nc1ccc(F)cc1)Nc1ccc(F)cc1 | – | 1.46 µM [rising, partial curve] | – |
| CCOC(=O)C1C(c2cc(OC)c(OC)c(OC)c2)NC(=S)NC1(O)C(F)(F)F (stereo not given) | 12.9% | 1.03 µM [rising, partial curve] | – |
| COc1ccc(OC)c(NC(=O)CSc2ccc3nnc(-c4ccccn4)n3n2)c1 | 24.1% | 0.00517 µM [rising, full curve, poor fit] | – |
| COc1cc(/C(C)=N\NC(N)=S)cc(OC)c1OC | 3.28% | 16.4 µM [falling, partial curve] | – |
| O=C(CCNS(=O)(=O)c1ccccc1)N1CCOCC1 | 20.5% | 29.1 µM [rising, single point] | – |
| COc1ccc(NC(=O)c2ccc(NC(=O)CN(C)CC(=O)Nc3c(C)cccc3C)cc2)cc1 | -20.5% | 29.1 µM [falling, single point] | – |
| O=C(NCCNC(=O)c1ccccc1)c1ccccc1 | -18.5% | 0.731 µM [falling, full curve, poor fit] | – |
| O=C(CN1C(=O)NC(c2ccccc2)(c2ccccc2)C1=O)NCc1cccs1 | 13.8% | – | 6.51 µM [rising, single point] |
| CC(=O)NNC(=O)c1sc(=S)n2c1[nH]c(=O)c1sccc12 | -20.6% | – | 0.00461 µM [falling, full curve, poor fit] |
| COc1ccc(S(=O)(=O)N2CCN(C(=O)N(C)C)C2C)cc1 (stereo not given) | 16.4% | – | – |
| Nc1ccn(-c2ccc(Cl)cc2)c(=O)c1 | -23.7% | 0.00517 µM [rising, full curve, poor fit] | – |
| O=S(=O)(Cc1cc(Oc2ccccc2)nc(-c2ccccc2)n1)c1ccccc1 | 0.766% | 29.1 µM [rising, single point] | – |
| CCOC(=O)c1c(C)c(C(=O)NCc2ccc3c(c2)OCO3)c(C)n1CC | -1.97% | 2.91 µM [rising, partial curve, poor fit] | – |

| SMILES | cell number change | AC50 [1] | AC50 [2] |
| --- | --- | --- | --- |
| Cc1ccc(S(=O)(=O)NCCCNS(C)(=O)=O)cc1 | 0.405% | – | – |
| CCN(C(=O)COC(=O)c1cc(S(=O)(=O)N2CCc3ccccc32)ccc1OC)C1CCS(=O)(=O)C1 (stereo not given) | 7.67% | 3.26 µM [rising, single point] | – |
| CCN(CC)S(=O)(=O)c1cc(NC(=O)Cn2cnc3ccccc3c2=O)ccc1C | 3.57% | 2.91 µM [rising, single point] | – |
| CCOC(=O)c1c(C)n(-c2ccc(C)cc2)c2c(CC(C)=O)c(Br)c(OC)c(O)c12 | -34.2% | 29.1 µM [falling, single point] | 3.66 µM [falling, full curve] |
| Cc1cc(/C=C(/C#N)C(=O)O)c(C)n1CCC(C)C | -9.13% | 7.31 µM [falling, full curve] | – |
| COCCCNC(=O)/C(C#N)=C/c1ccc(F)cc1 | -71.6% | 29.1 µM [falling, single point] | 23.1 µM [falling, single point] |
| CCOc1ccc(C(C(=O)NCCC(C)C)N(CCO)C(=O)c2snc(C(N)=O)c2N)cc1 (stereo not given) | 2.1% | 6.51 µM [falling, single point] | – |
| Cc1ccccc1NC(=O)C(C)c1ccc(-c2ccccc2)c(F)c1 (stereo not given) | 6.66% | – | 0.103 µM [rising, full curve] |
| CC(=O)Nc1ccc(NC(=O)COC(=O)c2cc([N+](=O)[O-])ccc2N2CCOCC2)cc1 | 35.5% | – | – |
| CCOc1ccc(/C=N/Nc2ccc(C(F)(F)F)cc2[N+](=O)[O-])cc1O | -1.07% | 16.4 µM [falling, single point] | – |
| O=C(Nc1ccc(Cl)cc1)Nc1ccc2c(c1)OCO2 | 23.2% | 0.00461 µM [rising, full curve, poor fit] | – |
| CCC(c1nnc(SCC(=O)Nc2ccc(C(N)=O)cc2)n1Cc1ccccc1)N(C)C (stereo not given) | -9.19% | – | – |
| O=C(c1cc(COc2ccc(F)cc2Cl)on1)N1CCC(OCc2cccnc2)CC1 | -39.7% | 32.6 µM [falling, partial curve, poor fit] | 29.1 µM [falling, single point] |
| CCOc1cc(CN2CCN(Cc3ccc(C)o3)C(CCO)C2)ccc1OC (stereo not given) | -1.51% | – | – |
| CCC(C)NC(=O)C1=C(C)C(=O)OC12CCC(C)CC2 (stereo not given) | -29.8% | 0.58 µM [falling, full curve] | 0.366 µM [falling, full curve] |
| CC(=O)[C@@H]1[C@@H](C(=O)c2ccc(F)cc2)[C@]2(C(=O)Nc3ccccc32)[C@H]2C=Cc3cc(F)ccc3N12 | 6.54% | 3.26 µM [rising, partial curve] | – |
| COc1ccc(C(=O)N=c2sc3c(C)ccc(OC)c3n2C)cc1 | – | – | 6.51 µM [rising, single point] |
| C=CCn1c(=O)c(C(=O)NCc2ccc(Cl)cc2)c(O)c2ccccc21 | 15.1% | – | – |
| Cc1ccc(NC(=O)C2CCN(C(=O)OC(C)(C)C)CC2)cc1S(=O)(=O)N1CCCCC1 | 12% | – | – |
